Article PMC8429565, “Conformational rearrangements enable iterative backbone N-methylation in RiPP biosynthesis” (Nature Communications, 2021)
Substitutions are numbered along the chain they refer to. These are yes or no findings as the source states them, for the method shown. Some binding calls cover weakened binding; strength is not graded here. Sequences can lack the tags named with a protein. Values belong to the binder of their own block, whether it stands above or below them.

Experiments:
[1] = molecular target: unmethylated SonA precursor peptide (SonA-0Me), his6-tagged (Shewanella oneidensis MR-1) (UniProt Q8EGW2); assay: SEC; oligomeric state of individually expressed and purified SonM and SonA (Supplementary Fig. 6); Superdex 200 in 50 mM HEPES pH 8, 300 mM NaCl, 10% glycerol is the sizing step of the purification; both purified
[2] = molecular target: T1, SonM-R67A, untagged, co-expressed with his6-SonA (Shewanella oneidensis MR-1) (UniProt Q8EGW3); assay: crystal structure; co-purified SonM (wt or active site mutant)-SonA complexes, with or without SAH; 20% PEG 3350, 240 mM sodium malonate pH 7 (refined pH 5.5-7), 292 K; both purified
T1 sequence: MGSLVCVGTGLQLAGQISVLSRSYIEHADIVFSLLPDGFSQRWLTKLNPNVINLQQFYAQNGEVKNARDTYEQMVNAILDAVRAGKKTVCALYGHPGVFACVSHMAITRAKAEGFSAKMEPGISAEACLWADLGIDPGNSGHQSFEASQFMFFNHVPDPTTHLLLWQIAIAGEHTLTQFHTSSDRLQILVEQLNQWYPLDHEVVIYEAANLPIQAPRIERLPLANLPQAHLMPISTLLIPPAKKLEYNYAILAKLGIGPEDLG

[3] = molecular target: T2, SonM α-N-methyltransferase (SO1478), wild type, untagged, co-expressed with his6-SonA or SonA-BBD (Shewanella oneidensis MR-1) (UniProt Q8EGW3); assay: crystal structure; co-purified SonM-SonA-BBD complex, with SAM in one heterodimer; 100 mM Bis-Tris pH 5.5, 100 mM ammonium acetate, PEG 10,000, 292 K; both purified
T2 sequence: T1 sequence with A67R

binding [1]: no binding
binding [2]: binds
B1: unmethylated SonA precursor peptide (SonA-0Me), his6-tagged (natural protein, Shewanella oneidensis MR-1, UniProt Q8EGW2 1-71, looked up)
chain: MSGLSDFFTQLGQDAQLMEDYKQNPEAVMRAHGLTDEQINAVMTGDMEKLKTLSGDSSYQSYLVISHGNGD

binding [3]: binds
B2: SonA borosin binding domain only construct (SonA-BBD; 1-55) (domain or fragment, Shewanella oneidensis MR-1, UniProt Q8EGW2 1-55, looked up)
chain: MSGLSDFFTQLGQDAQLMEDYKQNPEAVMRAHGLTDEQINAVMTGDMEKLKTLSG
notes: SonA (SO1479) of Shewanella oneidensis MR-1, helical bundle composed of the first 55 amino acids (1-55); The his6 tag is stated for the individual construct; for the co-expression construct it is surmised from the template plasmid pMF1181; also called BBD-SonA; his6-SonA-BBD
